How the values were obtained:
MCF-7 = assay: 72-h MTT cytotoxicity assay; format: cell-based; conditions: Homo sapiens, MCF7 cells
Method: (§1) MTT cytotoxicity assay. […] Human tumour cell lines were obtained from ECACC (European Collection of Cell Cultures). Standard 72-h MTT (thiazolyl blue; 3-[4,5-dimethylthiazol-2-yl]-2,5-diphenyltetrazolium bromide, 2 mg/ml in phosphate buffered saline) assays were performed. In short: cells were seeded into 96-well plates according to doubling time and incubated overnight at 37° C. Test compounds were made up in DMSO and a ⅓ dilution series prepared in 100 μL cell media, added to cells (in triplicates) and incubated for 72 hr at 37° C. MTT was made up as a stock of 5 mg/mL in cell media and filter-sterilised. Media was removed from cells followed by a wash with 200 μL PBS. MTT solution was then added at 20 μL per well and incubated in the dark at 37° C. for 4 h. MTT solution was removed and cells again washed with 200 μL PBS. MTT dye was solubilised with 200 μL per well of DMSO with agitation. Absorbance was read at 550 nm on an Anthos Labtec Systems plate reader.

HCT-116 = assay: 72-h MTT cytotoxicity assay; format: cell-based; conditions: Homo sapiens, HCT116 cells
Method: as §1

For CNc1nc(C)c(-c2nc(Nc3cccc([N+](=O)[O-])c3)ncc2C#N)s1 [Example 1.7, 4-(4-methyl-2-(methylamino)thiazol-5-yl)-2-(3-nitrophenylamino)pyrimidine-5-carbonitrile], the GI50 (MCF-7) was 80 nM and the GI50 (HCT-116) was 50 nM.

Source: US20110092490A1, “PYRIMIDINES, TRIAZINES AND THEIR USE AS PHARMACEUTICAL AGENTS” (THE UNIVERSITY OF NOTTINGHAM, priority 2008, published 2011)
